Experimental data published in patent US20170022275A1 (Dana-Farber, published 2017).
No constants are given. Whether binding was seen depends on the method and setting. Some entries that bind do so weakly or less than the wild type. For some of these results: Sequences can lack the tags named with a protein.

Assays:
[1] = target: T1, MICA antigen (UniGene Hs.130838) with C-terminal BirA tag (human) (UniProt Q29983); assay: bead assays: Luminex MICA beads and MICA-coated streptavidin beads, flow cytometry
T1 sequence: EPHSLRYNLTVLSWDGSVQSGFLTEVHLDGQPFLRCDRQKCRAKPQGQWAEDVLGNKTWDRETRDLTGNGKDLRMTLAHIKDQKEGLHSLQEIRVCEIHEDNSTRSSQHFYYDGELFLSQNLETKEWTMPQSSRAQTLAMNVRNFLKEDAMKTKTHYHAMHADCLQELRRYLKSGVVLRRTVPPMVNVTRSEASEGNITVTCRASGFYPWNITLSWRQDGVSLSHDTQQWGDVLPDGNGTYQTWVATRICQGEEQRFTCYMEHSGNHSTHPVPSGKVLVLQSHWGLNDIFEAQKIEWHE

MICB (human) = target: T2, MICB (human) (UniProt Q29980); assay: cytometric bead assay, biotinylated antigen on streptavidin beads, FITC anti-human IgG
T2 sequence (looked up): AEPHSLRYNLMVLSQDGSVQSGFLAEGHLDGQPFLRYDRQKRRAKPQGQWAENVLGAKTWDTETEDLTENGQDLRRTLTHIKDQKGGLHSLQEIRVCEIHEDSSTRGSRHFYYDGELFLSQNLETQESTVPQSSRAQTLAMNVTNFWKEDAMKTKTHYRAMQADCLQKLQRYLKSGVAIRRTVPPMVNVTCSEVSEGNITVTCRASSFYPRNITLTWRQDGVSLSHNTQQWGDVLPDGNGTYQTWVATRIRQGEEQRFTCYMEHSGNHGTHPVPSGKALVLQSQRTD

[2] = target: T3, MICA on the surface of cells (human) (UniProt Q29983); assay: flow cytometry on RPMI 8226, Xg-1, OVCAR3, U937, K028, 1792, 827, MCF7 cells, directly conjugated antibody 10 µg/ml
T3 sequence (looked up): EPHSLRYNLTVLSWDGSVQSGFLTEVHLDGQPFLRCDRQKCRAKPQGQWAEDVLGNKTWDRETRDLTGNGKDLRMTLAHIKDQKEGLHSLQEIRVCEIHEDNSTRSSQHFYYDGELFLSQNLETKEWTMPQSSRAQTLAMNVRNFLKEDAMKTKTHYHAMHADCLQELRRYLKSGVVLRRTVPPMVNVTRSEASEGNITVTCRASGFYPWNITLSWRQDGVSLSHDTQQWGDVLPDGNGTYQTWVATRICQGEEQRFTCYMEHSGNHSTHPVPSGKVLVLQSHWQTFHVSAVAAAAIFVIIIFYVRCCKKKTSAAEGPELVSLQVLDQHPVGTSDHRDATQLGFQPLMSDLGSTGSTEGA

[3] = target: T3, MICA on the surface of cells (human); assay: flow cytometry (figure legend)
[4] = target: T3, MICA on the surface of cells (human); assay: flow cytometry, autologous CD33+ CD34+ tumor cells from bone marrow, antibody 10 µg/ml
[5] = target: T3, MICA on the surface of cells (human); assay: flow cytometry, antibody 10 ug/ml, B16 and B16-MICA cells (figure legend)

Binder | binding (MICB (human)) | binding [2] | binding [3] | other results
MICA-Ab20 (antibody, V domains shown) VH: QVQLQQWGAGLLKPSETLALTCAVSGGSFTDHYWSWIRQAPGKGLEWIGEINHSGVTNYNPSLKSRLTISVDTSKSQFSLRLTSVTAADTALYYCAKTGLYYDDVWGTFRPRGGFDSWGQGTLVTVSS VL: DIVMTQSPDSLAVSLGERATINCKSSQSILYSSDNKNYLAWYQHKPGQPPKLLFYWASIRESGVPDRFSGGGSGTDFTLTISSLQAEDVAVYYCQQYYSPPCSFGQGTKLEIQ | – | – | – | binding [1]: binds
CM24002 Ab2 (antibody, V domains shown) VH: QVQLQESGPGLVEPSGTLSLTCTVSGGSISRSNWWSWVRQPPGEGLEWIGEIHHIGRSSYNPSLKSRVTMSVDKSQNQFSLRLTSVTAADTAVYYCAKNGYYAMDVWGQGTTVTVSS VL: EIVLTQSPGTLSLSPGERATLSCRASQSVSSDFLAWYQQKPGQAPRLLIYATSFRATGISDRFSGSGSGTDFSLTINRLEPEDFAVYYCQHYRSSPPWYTFAQGTKLDMRRTVAAPSV | binds | binds | binds | binding [4]: binds
CM24002 Ab4 (antibody, V domains shown) VH: QVQLQESGPGLVKPSGTLSLTCAVSGASITNGAWWSWVRQPPGKGLEWIGEIYLNGNTNSNPSLKSRVIISVDKSKNHFSLTLNSVTAADTAVYYCAKNAAYNLEFWGQGALVTVSS VL: EIVLTQSPGTLSLSPGERATLSCRASQTVSSPYVAWYQQKRGQAPRLLIYGASTRATGIPDRFSGSGSGTDFTLTISRLEPEDFAVYYCQQYDRSYYYTFGQGTKLEIK | binds | – | – | –
CM33322 Ab11 (antibody, V domains shown) VH: QVQLQESGPGLVKPSENLSLTCTVSDASMSDYHWSWIRQAAGKGLEWIGRMYSTGSPYYKPSLKGRVTMSIDTSKNQFSLKLASVTAADTAIYYCASGQHIGGWVPPDFWGQGTLVTVSS VL: DIVMTQTPLSSPVTLGQPASISCRSSEGLVYSDGDTYLSWFHQRPGQPPRLLIYKISNRFSGVPDRFSGSGAGTDFTLKISRVEAEDVGVYYCMQATHFPWTFGQGTKVEVKR | binds | – | – | –
CM33322 Ab29 (antibody, V domains shown) VH: EVQLLESGGGLVQPGGSLRLSCAASGFTFSSYGLTWIRQAPGKGLEWVSSISGSGNNTYYADSVKGRFTISRDKVKKTLYLQMDSLTVGDTAVYYCLGVGQGHGIPVIVSS VL: DVVMTQSPLSLPVTLGQPASISCRSSQSLVHSDGNTYLNWFHQRPGQSPRRLIYKVSKRDSGVPDRFSGSGSGSDFTLKISRVEAEDVGIYYCMQGTHWPTFGQGTKVEIKRTVAA | – | binds | binds | binding [5]: binds
